Results reported in patent US20170320960A1.

B1: SC57.5 (antibody, V domains shown)
VH: EVQLQQSGPELVKPGASVKISCKASGYSFTDYYLHWVKQSHVKSLEWIGRINPYNGATSYNQIFKDKASLTVDKSSSTAYMDLHSLTSEDSAVYYCARGGDYDFPWYWGQGTTLTVSP
VL: DIVMTQSHKFMSTSVGDRVSITCKASQDVYAAVAWYHQKPGQSPKLLIYWASTRHAGVPDRFTGSGSGTDYTLTISSVQAEDLALYYCQQHYRTPWTFGGGTKLEIK
B2: SC57.46 (antibody, V domains shown)
VH: QVQLKESGPGLVAPSQSLSITCTVSGFSLTSYGVHWVRQPPGKGLEWLGIIWAGGTTNYNSALMSRLSIRKDNSKSQVFLKMNSLQTDDTAMYYCARDRGYDGYFDYAVDYWGQGTSVTVSS
VL: DIQMTQSPPSLSASVGETVTITCRTSENIYSYLTWYQQKQGKSPQLLVYNAKTLAEGVPSRFSGSGSGTQFSLKINSLQPEDFGSYYCQHHYGTPLTFGAGTKLELK
B3: SC57.1 (antibody, V domains shown)
VH: QVQLKQSGPGLVQPSQSLSITCTVSGFSLTDYGVHWVRQSPGKGLDWLGVIWSGGNTDYNAAFISRLSISKDNSKSQIFFEMNSLQDTDTAIYYCARQLHYYGPFAYWGQGTLVTVSA
VL: QIVLTQSPAIMSASPGEKVTMTCSASSSVSYMHWYQQKSGTSPKRWIYDTSKLASGVPVRFSGSGSGTSYSLTISSIEADDAATYYCQQWSRTPPTFGGGTKLEIK
B4: SC57.17 (antibody, V domains shown)
VH: EVQLQQSGAELVKPGASVKLSCTASGFNIKDTYMHWVKQRPEQGLEWIGRIDPANVNTSDDPKFQGKATIAADTSSNTVYLQLSSLTSEDTAVYYCARDYRYDGYYYAMDYWGQGTSVTVSS
VL: DIQMTQTTSSLSASLGDRVTISCSASQDINNYLNWYQQKPDGTVKLLIHYTSSLHSGVPSRFSGSGSGTDYSLTISNLEPEDIATYYCQQYSKVPWTFGGGTKLEIK
B5: SC57.2 (antibody, V domains shown)
VH: QVQLKQSGPGLVQPSQSLSITCTVSGFSLTDYGVHWVRQSPGKGLDWLGVIWSGGNTDYNAAFISRLSISKDNSKSQIFFEMNSLQDTDTAIYYCARQLHYYGPFAYWGQGTLVTVSA
VL: QIVLTQSPAIMSASPGEKVTMTCSASSSVSYMHWYQQKSGTSPKRWIYDTSKLASGVPVRFSGSGSGTSYSLTISSIEADDAATYYCQQWSRTPPTFGGGTKLEIK
B6: SC57.27 (antibody, V domains shown)
VH: ELKLVESGGDLVKPGGSLKLSCAASGFSFNNYAMSWVRQTPEKRLEWVASISSGGTTFYPDSVKGRFTMSRDHARNILYLQMNSLRSEDTAMYYCVRGQWLSLYSMDYWGQGTSVTVSS
VL: DIQMTQSPVSLSASVGETVTITCRASEIIYSYLAWYQQKQGKSPQLLVYNAKTLAEGVPSRFSGSGSGTQFSLKINSLQPEDFGTYYCQHHYGVPVTFGAGTKLELK
B7: SC57.31 (antibody, V domains shown)
VH: QVHLKESGPGLVAPSQSLSITCTVSGFSLTTYGVHWVRQPPGKGLEWLGVIWAGGSTKYNSAFMSRLSISKDNSKTQVLLKMNSLQTDDTAMYYCARVASHGSSSWFAYWGQGTLVTVSA
VL: DIVLTQSPATLSVTPGDSVSLSCRASQSVGNSLHWYQQKSHESPRLLIKYASQSISGIPSRFSGSGSGTDFTLSINSVETEDFGMYFCQQSDSWPLTFGTGTKLELK
B8: SC57.6 (antibody, V domains shown)
VH: GVQVVESGGGVVQPGGSLKLSCAASGFTFSSYAMSWVRQTPEKRLEWVAYLSRGGGSTYYLDTVKGRFTISRDNAKNTLYLQMNSLKSEDTAMYYCARLDGYNWYFDVWGAGTPVTVSS
VL: DIVMSQSPSSLAVSAGEKVTMSCKSSQSLLHSRIRKNYLAWYQQKPGQSPKLLIYWASTRESGVPDRFTGSGSGTDFTLTISSVQAEDLAVYYCKQSYNLFTFGGGTKLEIK
B9: SC57.48 (antibody, V domains shown)
VH: GVQVVESGGGVVQPGGSLKLSCAASGFTFSSYAMSWVRQTPEKRLEWVAYLSRGGGSTYYLDTVKGRFTISRDNAKNTLYLQMNSLKSEDTAMYYCARLDGYNWYFDVWGAGTPVTVSS
VL: DIVMSQSPSSLAVSAGEKVTMSCKSSQSLLHSRIRKNYLAWYQQKPGQSPKLLIYWASTRESGVPDRFTGSGSGTDFTLTISSVQAEDLAVYYCKQSYNLFTFGGGTKLEIK
B10: SC57.53 (antibody, V domains shown)
VH: QVHLKESGPGLVAPSQSLSITCTVSGFSLTTYGVHWVRQPPGKGLEWLGVIWAGGSTKYNSAFMSRLSISKDNSKTQVLLKMNSLQTDDTAMYYCARVASHGSSSWFAYWGQGTLVTVSA
VL: DIVLTQSPATLSVTPGDSVSLSCRASQSVGNSLHWYQQKSHESPRLLIKYASQSISGIPSRFSGSGSGTDFTLSINSVETEDFGMYFCQQSDSWPLTFGTGTKLELK
B11: SC57.7 (antibody, V domains shown)
VH: GVQVVESGGGVVQPGGSLKLSCAASGFTFSSYAMSWVRQTPEKRLEWVAYLSRGGGSTYYLDTVKGRFTISRDNAKNTLYLQMNSLKSEDTAMYYCARLDGYNWYFDVWGAGTPVTVSS
VL: DIVMSQSPSSLAVSAGEKVTMSCKSSQSLLHSRIRKNYLAWYQQKPGQSPKLLIYWASTRESGVPDRFTGSGSGTDFTLTISSVQAEDLAVYYCKQSYNLFTFGGGTKLEIK
B12: SC57.57 (antibody, V domains shown)
VH: QVHLKESGPGLVAPSQSLSITCTVSGFSLTTYGVHWVRQPPGKGLEWLGVIWAGGSTKYNSAFMSRLSISKDNSKTQVLLKMNSLQTDDTAMYYCARVASHGSSSWFAYWGQGTLVTVSA
VL: DIVLTQSPATLSVTPGDSVSLSCRASQSVGNSLHWYQQKSHESPRLLIKYASQSISGIPSRFSGSGSGTDFTLSINSVETEDFGMYFCQQSDSWPLTFGTGTKLELK
B13: SC57.9 (antibody, V domains shown)
VH: QVQLQQSGPELMKPGASVKISCKATGYTFSSYWIEWVKQRPGHGLEWIGEILPGSGSTEYNEKFKGKATFTADTSSNTAYMQLSSLTSEDSDVYYCARKRYGTMDYWGQGTSVTVSS
VL: QIVLTQSPAIMSASPGEKVTITCSASSSVSYMHWFQQKPGTSPKLWIYTTSNLASGVPARFSGSGSGTSYSLTISRMEAEDAATYYCQQRSSFPPTFGSGTKLEIK

Each binder was assayed against rMFI2-His (extracellular domain of rat MFI2 with Histidine tag) (rat) (assay: bio-layer interferometry (ForteBio RED): antibody on anti-mouse Fc sensor, 300 nM rMFI2-His).
B1 was tested, and the binding was “binds”.
B2 was tested, and the binding was “binds”.

What follows are binders tested against rMFI2-His (extracellular domain of rat MFI2 with Histidine tag) (rat) (assay: bio-layer interferometry (ForteBio RED): antibody on anti-mouse Fc sensor, rMFI2-His in solution).
For B3, the binding was “no binding (tested: 300 nM)”.
In the case of B4, the binding is reported as “no binding (tested: 300 nM)”.
With B5 the binding was “no binding (tested: 300 nM)”.
B6 was tested, and the binding was “no binding (tested: 300 nM)”.
With B7 the binding was “no binding (tested: 300 nM)”.
In the case of B8, the binding is reported as “no binding (tested: 300 nM)”.
With B9 the binding was “no binding (tested: 300 nM)”.
In the case of B10, the binding is reported as “no binding (tested: 300 nM)”.
With B11 the binding was “no binding (tested: 300 nM)”.
For B12, the binding was “no binding (tested: 300 nM)”.
For B13, the binding was “no binding (tested: 300 nM)”.

Results are given in words; binding and its absence hold for the method and conditions named. For some of these results: A result given as binding can be weak or reduced; the word gives no strength.
